Results are given in words; binding and its absence hold for the method and conditions named. Some binding calls cover weakened binding; strength is not graded here.
T1: Angiopoietin-2 (Ang2) (human, UniProt O15123 19-496, biotin label in Examples 22-24)
T1 construct: also called rhAng2; recombinant Ang2
T1 sequence (looked up): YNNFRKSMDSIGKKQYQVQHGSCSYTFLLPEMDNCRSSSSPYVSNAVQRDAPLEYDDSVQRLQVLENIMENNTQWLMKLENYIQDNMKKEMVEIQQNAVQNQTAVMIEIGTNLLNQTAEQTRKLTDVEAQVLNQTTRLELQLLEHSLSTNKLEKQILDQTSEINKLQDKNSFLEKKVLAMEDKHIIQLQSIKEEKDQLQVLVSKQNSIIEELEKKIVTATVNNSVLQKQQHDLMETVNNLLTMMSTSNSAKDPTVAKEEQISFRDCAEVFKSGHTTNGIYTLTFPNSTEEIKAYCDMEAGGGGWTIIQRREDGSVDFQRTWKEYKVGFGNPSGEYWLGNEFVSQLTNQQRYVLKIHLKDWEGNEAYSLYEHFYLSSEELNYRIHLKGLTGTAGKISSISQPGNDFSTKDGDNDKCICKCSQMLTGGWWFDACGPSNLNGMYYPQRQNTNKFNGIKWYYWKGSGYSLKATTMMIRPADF


These binders were tested against T1, Angiopoietin-2 (Ang2) (assay: Example 48, method not detailed).

binding, binds:
RHVDCYFYPNPPHCYLVL [ANG680]
FNYSMYDCYFYPNPAHCY [ANG660]
RSLACEFHPQKYHVQCALPH [ANG399]
GGVPMTDCYFYPNPRHCY [ANG667]
LTPSGSDCYFYPNPLHCY [ANG638]
SLEDCFFYPNPTLCYNNG [ANG648]
EEGSSSDCYFYPNPRHCY [ANG651]
VMLDCYFYPNPLDCYWLT [ANG677]
SPNDCYFYPNPPECYTHR [ANG665]
SWAQCYAYPNPDFCNRSG [ANG404]
QWFRCYEFPEPDWCRVRS [ANG391]
LVLPLFDCYFYPNPPHCY [ANG661]
DEADCYYYPNPPHCYSGH [ANG672]
TFIDCYFYPNPPHCYALW [ANG642]
ASDILLDCYFFPNPPHCR [ANG643]
WYDPYYACYFYPNPTYCY [ANG675]
KERPCVWWKQPWCFQAS [ANG390]
YLNHNYECYFFPNPTHCY [ANG640]
TYRKCMTYPNPHYCFKHS [ANG394]
EWAFCYSYPNPDYCHEAV [ANG393]
PWFSCYYFPNPSHCMDVV [ANG397]
LELPCGKYPNMWFCYKVA [ANG389]
GFLTFYDCYFFPNPPHCF [ANG641]
LSGPFLDCYFYPNPTHCY [ANG676]
WPTDCFFFPNPPHCYHDG [ANG670]
RTGTLGDCYFYPNPRHCY [ANG657]
QSVRYMDCYFYPNPSHCY [ANG674]
IVITSLACYFYPNPLHCY [ANG666]
ASLGLYDCYYFPNPPNCY [ANG655]
DFRDCYSFPNPTQCYINT [ANG668]
SSLEHNDCYFYPNPMHCY [ANG679]
REQDCFFYPNPPHCYVDN [ANG654]
FHFVLYDCYFYPNPPYCF [ANG662]
TYLQIIECYFYPNPPHCY [ANG637]
TLVSMMDCYYYPNPPHCY [ANG673]
HILDCYFYPNPPHCYLVT [ANG671]
LTLLLDDCYFYPNPPHCY [ANG652]
MYAMCQWHPSPEQCRSPS [ANG407]
SGTECYFYPNPPHCYSSD [ANG647]
PYERCTKHPNPTYCWKNL [ANG406]
SMWGCHMQPNYRECSLWI [ANG387]
LPLSWSDCYFYPNPPHCY [ANG644]
GAYDCYFYPNPPHCYGTT [ANG639]
GMLDCYFYPNPPHCYLDR [ANG646]
PHVICHYCPHPWCFLNS [ANG388]
AFSRFLDCYFYPNPQHCY [ANG649]
ALLDCYFYPNPAHCYITM [ANG645]
QYDPCEYDIPCVKWG [ANG403]
STNLALDCYFYPNPPHCY [ANG664]
IEGDCYFYPNPPHCYEQN [ANG659]
LFHSMTDCYFYPNPRHCY [ANG653]
PHVICHYWKHPWCFHNS [ANG396]
HRADCYFFPNPMDCYQWR [ANG663]
RYSLCMTYPNPYQCYKSN [ANG395]
PYEKCMTYPNPWYCFLTD [ANG405]
SPLDCYFYPNPPHCYYAH [ANG658]
GVYSFLECSFFPNPPYCY [ANG650]
NTLRCYSGVLVDAMVCFTSG [ANG400]
LYDRCVCFPNLFWCEMTT [ANG398]

Source: patent US20160046678A1 (ZYNGENIA, published 2016)
